Experimental data as given in publication PMC10483223.

The chains behind the UniProt entries cited, without tags or fusion partners.
UniProt Q16531: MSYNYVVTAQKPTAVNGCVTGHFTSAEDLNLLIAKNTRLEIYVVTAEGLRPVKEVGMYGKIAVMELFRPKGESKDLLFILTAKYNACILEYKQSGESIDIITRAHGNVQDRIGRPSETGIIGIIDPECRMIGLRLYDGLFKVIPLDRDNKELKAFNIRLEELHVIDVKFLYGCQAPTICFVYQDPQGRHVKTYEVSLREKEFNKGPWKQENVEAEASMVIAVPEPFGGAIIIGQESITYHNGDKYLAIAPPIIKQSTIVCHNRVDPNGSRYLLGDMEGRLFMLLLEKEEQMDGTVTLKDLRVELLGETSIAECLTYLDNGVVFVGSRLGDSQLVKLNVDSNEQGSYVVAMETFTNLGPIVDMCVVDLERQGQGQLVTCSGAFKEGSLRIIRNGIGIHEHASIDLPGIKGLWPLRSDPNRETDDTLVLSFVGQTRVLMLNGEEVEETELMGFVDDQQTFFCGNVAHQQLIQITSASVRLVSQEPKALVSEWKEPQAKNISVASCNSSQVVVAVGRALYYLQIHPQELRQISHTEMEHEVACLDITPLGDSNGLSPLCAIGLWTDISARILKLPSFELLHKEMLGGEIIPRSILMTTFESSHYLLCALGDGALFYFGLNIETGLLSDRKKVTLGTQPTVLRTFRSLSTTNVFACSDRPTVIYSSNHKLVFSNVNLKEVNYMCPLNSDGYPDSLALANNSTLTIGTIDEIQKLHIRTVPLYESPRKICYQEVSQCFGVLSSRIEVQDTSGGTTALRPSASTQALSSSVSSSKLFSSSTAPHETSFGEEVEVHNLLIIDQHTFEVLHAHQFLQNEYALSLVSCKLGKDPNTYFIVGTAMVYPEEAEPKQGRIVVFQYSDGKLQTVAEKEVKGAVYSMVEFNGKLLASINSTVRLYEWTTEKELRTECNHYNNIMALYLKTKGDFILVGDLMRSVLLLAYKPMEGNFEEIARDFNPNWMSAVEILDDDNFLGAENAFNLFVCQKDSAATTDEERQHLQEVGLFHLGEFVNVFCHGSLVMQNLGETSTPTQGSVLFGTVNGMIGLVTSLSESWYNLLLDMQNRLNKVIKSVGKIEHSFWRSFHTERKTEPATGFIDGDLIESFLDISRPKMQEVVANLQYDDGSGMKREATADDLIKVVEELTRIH

Biological target: T1, Glue (SBP-HA-CBP)-tagged WDTC1 (mouse) (UniProt Q80ZK9)
T1 sequence: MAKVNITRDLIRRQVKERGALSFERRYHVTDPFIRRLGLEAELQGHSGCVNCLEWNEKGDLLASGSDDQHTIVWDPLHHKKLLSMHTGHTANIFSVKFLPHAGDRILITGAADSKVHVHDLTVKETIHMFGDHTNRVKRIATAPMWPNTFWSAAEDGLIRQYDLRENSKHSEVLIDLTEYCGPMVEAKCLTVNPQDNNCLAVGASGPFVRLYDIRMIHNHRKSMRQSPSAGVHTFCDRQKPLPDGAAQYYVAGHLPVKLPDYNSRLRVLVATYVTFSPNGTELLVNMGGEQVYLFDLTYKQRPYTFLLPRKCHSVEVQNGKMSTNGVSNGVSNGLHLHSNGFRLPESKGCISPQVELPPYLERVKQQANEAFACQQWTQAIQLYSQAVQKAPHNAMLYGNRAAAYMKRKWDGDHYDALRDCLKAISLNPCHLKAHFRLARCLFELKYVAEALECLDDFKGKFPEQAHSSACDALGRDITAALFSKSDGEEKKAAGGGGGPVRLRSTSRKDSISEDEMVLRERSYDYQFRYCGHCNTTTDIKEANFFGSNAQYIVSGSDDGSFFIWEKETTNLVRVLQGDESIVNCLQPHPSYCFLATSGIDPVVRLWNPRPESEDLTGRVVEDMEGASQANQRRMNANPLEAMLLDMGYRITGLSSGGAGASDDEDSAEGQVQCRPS
Assay: affinity purification with mass spectrometry; nuclear extracts of stable HEK293T cells expressing Glue-WDTC1 or vector alone; tandem purification on Strep-Tactin beads (4°C, 1 h, desthiobiotin elution) then calmodulin beads (4°C, 3 h); silver staining and mass spectrometry; two separate experiments

binding	Substance
binds	Hsp70 (human (endogenous in HEK293T))
binds	DDB1 (from UniProt Q16531 1-1140)

These are yes or no findings as the source states them, for the method shown. In cells and extracts the contact can be indirect. These calls come from enrichment with a bait or labelling near it, and not all partners need be listed. Sequences can lack the tags named with a protein.
